Assay results from patent US12448399B2, “Cereblon-based KRAS degrading PROTACs and uses related thereto” (Arvinas Operations, Inc., priority 2023, dated 2025).
Read-outs that look alike come from different tables or passages of the source. Structures were worked out from names or drawings and are uncertain.

Sequences of proteins named here, by UniProt entry; tags and fusion partners are left off. Residues count along the entry.
UniProt P01116, 1-188 isoform 2 G12D: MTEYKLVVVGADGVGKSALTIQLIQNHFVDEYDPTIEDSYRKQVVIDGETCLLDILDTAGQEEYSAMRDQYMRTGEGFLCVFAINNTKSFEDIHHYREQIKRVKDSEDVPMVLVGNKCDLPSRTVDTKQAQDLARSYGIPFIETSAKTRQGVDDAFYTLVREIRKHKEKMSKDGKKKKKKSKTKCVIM

Molecular target: KRas-G12D (Homo sapiens, UniProt P01116, G12D)
Experiment: HiBiT Degradation Assay (G12D), AsPC-1 HiBiT-KRasG12D cells, 24 hr
Conditions: for KRas Degradation Dmax: AsPC-1 cells, maximum degradation observed
Protocol: AsPC-1 (CRL-1682) cells were purchased from ATCC and are homozygous for the G12D mutation in KRas. AsPC-1 cells were cultured in GIBCO RPMI-1640 (ThermoFisher Scientific, catalog #61870-036, with Glutamax, no HEPES, no Na Pyruvate) supplemented with 10% FBS (ThermoFisher Scientific, catalog #2060357) and 1× Penicillin-Streptomycin (ThermoFisher Scientific, catalog #15140122, 10000 U/ml, 100×). For degradation assays, 384 well plates were used. Alamar blue was purchased from ThermoFisher Scientific (A50101) and used according to manufacturer instructions. The Nano-Glo® HiBiT Lytic Detection System and Nano-Glo® HiBiT Blotting System were purchased from Promega (#N3050 and #N2410) and used according to manufacturer instructions.
To create the AsPC-1 HiBiT-KRasG12D cell line, CRISPR-Cas9 was used to insert the HiBiT tag onto the N-terminus of one or more of the endogenous KRas alleles. See Schwinn, M. K. et al. (2018) CRISPR-mediated tagging of endogenous proteins with a luminescent peptide, ACS Chem. Biol. 13(2), 467-474. After knock-in of the tag, individual clones were isolated by single cell dilution and screened for HiBiT insertion by PCR. A clone was identified that contained the desired HiBiT-KRasG12D sequence at one allele while the remaining two KRasG12D alleles were untagged. This clone was used in further studies.
AsPC-1 HiBiT-KRasG12D cells were plated at 9000 or 15,000 cells/well in a 384 well plate (Corning #3770). Compounds of the present disclosure and positive controls were diluted in the appropriate cell media and applied to the plated cells resulting in a final concentration titration of 10 μM to […] in 0.5% DMSO. Gambogic acid was used as a positive control for cytotoxicity and titrated from 10 μM to 78 nM. All assays were performed in triplicate. Cells were treated with compounds for 24 hr at 37° C. in an incubator containing 5% CO2. Following treatment, alamar blue was used to determine if any compounds led to a loss in cell viability after 24 hr. The 10× alamar blue reagent was added to a final concentration of 1× as recommended by the manufacturer and cells were returned to the incubator for 4 hr. Plates were then allowed to equilibrate to RT and fluorescence was measured using a Perkin-Elmer EnVision. After completion of the fluorescence read, the liquid from each well was removed and the cells were washed with PBS. The Nano-Glo® HiBiT detection reagent was prepared according to the manufacturer's instructions and added to each well after the PBS wash was removed. Following incubation at room temperature for 45 min, the luminescence was read using the ultra-sensitive luminescence aperture on the Envision instrument.
Fluorescence values from the alamar blue treatment were normalized to the DMSO-only control for each compound titration. HiBiT luminescence was normalized to the DMSO-only control and the fractional HiBiT signal was plotted versus the log of the PROTAC concentration and fit to a 4-parameter dose-response model to obtain the concentration of the compound that leads to half maximal degradation (DC50) as well as the maximum degradation observed (Dmax, conventionally expressed as a percentage of control).

[1] = read-out: KRas Degradation DC50, AsPC-1 cells

Row | SMILES | KRas Degradation Dmax (tested form: formic acid salt) | DC50 (read-out: KRas Degradation DC50, AsPC-1 cells, tested form: formic acid salt) [µM] | DC50 [1] [µM] | KRas Degradation Dmax
1 | C#Cc1c(F)ccc2cc(O)cc(-c3ncc4c(N5CC6CCC(C5)N6)nc(OCCCN5CCC(CC6CCN(CC7CCN(c8ccc9c(c8)n(C)c(=O)n9C8CCC(=O)NC8=O)CC7)CC6)CC5)nc4c3F)c12 (centres unmarked) | A (A represents a Dmax value >70%) | < 5.1 | – | –
2 | CCc1cccc2cc(O)cc(-c3ncc4c(N5CC6CCC(C5)N6)nc(OCCN5CCC(c6ccc7c(c6)C(=O)N(C6CCC(=O)NC6=O)C7)CC5)nc4c3F)c12 (centres unmarked) | – | – | 0.25 to 1 | –
3 | C#Cc1c(F)ccc2cc(O)cc(-c3ncc4c(N5CC6CCC(C5)N6)nc(OCCN5CCC(CC6CCN(CC7CN(c8ccc9c(c8)CN(C8CCC(=O)NC8=O)C9=O)C7)CC6)CC5)nc4c3F)c12 (centres unmarked) | – | – | < 5.1 | A (A represents a Dmax value >70%)
